Some entries share one result that the patent states for a list of compounds.
System: spontaneously hypertensive rats (SHR)
Assay: Arterial pressure in anaesthetized spontaneously hypertensive rats (carotid catheter)
Format: in vivo
Conditions: SHR rat, single intravenous injection; verapamil 0.1 or 0.3 mg/kg, captopril 1 mg/kg, G protein inhibitor 1 mg/kg
Description: 13/14 week old male SHR rats (Charles River France) are anaesthetized using pentobarbital (Sanofi) (60 mg/kg/IP). […] After a stabilization period of 10 minutes, the product or two products simultaneously are administered and their effects are monitored for 20 minutes.
For administration purposes, 7-(2-amino-1-oxo-3-thiopropyl)-8-(cyclohexylmethyl)-2-phenyl-5,6,7,8-tetrahydro-imidazo[1,2a]pyrazine, verapamil (Sigma, USA) and captopril (Sigma, USA) can be dissolved in an aqueous solution of NaCl at 0.9%.

SMILES: COc1ccc(CCN(C)CCCC(C#N)(c2ccc(OC)c(OC)c2)C(C)C)cc1OC (stereo not shown) [Verapamil, verapamil]
- time to reduction in arterial pressure: less than 2 minutes

From patent US7132553B2, “Product comprising an inhibitor of the transduction of heterotrimeric G protein signals combined with an anti-hypertensive agent for therapeutic use in the treatment of arterial hypertension” (Societe de Conseils de Recherches et d'Applications …, priority 2000, dated 2006)
